Values from PubChem BioAssay AID1259405 (NCATS, 2018)

Test: 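Silenced genes that increase secreted GFP made by CHO cells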 (primary screen)
Cells: Chinese hamster CHO-K1 ovary cells with stable secreted eGFP expression
Reagents: single siRNA against mouse genes, 0.8 pmol siRNA per well (2 µl of 400 nM stock)
Duration: 3 days
Read-out: 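Percent of the per-plate non-targeting control median for intracellular GFP per well by laser scanning cytometry and for cell viability by ATP luminescence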
Scale: GFP, % of control: higher = more GFP per well, higher productivity; viability (ATP), % of control: higher = more viable cells (more ATP)
Call rule: 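Called active when intracellular GFP, relative to negative control, is at or above 120%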
In all, the deposit lists about 50,000 reagents; shown is a random part of them. About 4,000 of them (8%) count as active. 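Mouse siRNA library applied to hamster cells; one well for each siRNA.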 Unmarked entries are inactive. The numbers tell different reagents against one gene apart.

Or4c12b (olfactory receptor family 4 subfamily C member 12B) #1 — GFP, % of control: 61.5; viability (ATP), % of control: 52
Or4c12b (olfactory receptor family 4 subfamily C member 12B) #2 — GFP, % of control: 62.9; viability (ATP), % of control: 42.5
Or4c12b (olfactory receptor family 4 subfamily C member 12B) #3 — GFP, % of control: 59.3; viability (ATP), % of control: 95.8
Myh8 (myosin, heavy polypeptide 8, skeletal muscle, perinatal) #1 — GFP, % of control: 33.2; viability (ATP), % of control: 56.9
Myh8 (myosin, heavy polypeptide 8, skeletal muscle, perinatal) #2 — GFP, % of control: 73.3; viability (ATP), % of control: 71.8
Tsbp1 (testis expressed basic protein 1) #1 — GFP, % of control: 60.7; viability (ATP), % of control: 91.1
Tsbp1 (testis expressed basic protein 1) #2 — GFP, % of control: 150 (active); viability (ATP), % of control: 144
Tsbp1 (testis expressed basic protein 1) #3 — GFP, % of control: 82.4; viability (ATP), % of control: 94.8
Stx2 (syntaxin 2) #1 — GFP, % of control: 59.1; viability (ATP), % of control: 46.4
Stx2 (syntaxin 2) #2 — GFP, % of control: 69.9; viability (ATP), % of control: 66.6
Stx2 (syntaxin 2) #3 — GFP, % of control: 64.2; viability (ATP), % of control: 61.1
Glis2 (GLIS family zinc finger 2) #1 — GFP, % of control: 61.6; viability (ATP), % of control: 43.3
Glis2 (GLIS family zinc finger 2) #2 — GFP, % of control: 80; viability (ATP), % of control: 66
Glis2 (GLIS family zinc finger 2) #3 — GFP, % of control: 88.7; viability (ATP), % of control: 80.9
Sv2b (synaptic vesicle glycoprotein 2b) #1 — GFP, % of control: 129 (active); viability (ATP), % of control: 111
Sv2b (synaptic vesicle glycoprotein 2b) #2 — GFP, % of control: 146 (active); viability (ATP), % of control: 95.5
Sv2b (synaptic vesicle glycoprotein 2b) #3 — GFP, % of control: 62.2; viability (ATP), % of control: 81.4
Muc13 (mucin 13, epithelial transmembrane) #1 — GFP, % of control: 69.8; viability (ATP), % of control: 61.6
Muc13 (mucin 13, epithelial transmembrane) #2 — GFP, % of control: 73.9; viability (ATP), % of control: 65.5
Muc13 (mucin 13, epithelial transmembrane) #3 — GFP, % of control: 103; viability (ATP), % of control: 97.6
Adam7 (a disintegrin and metallopeptidase domain 7) #1 — GFP, % of control: 69.4; viability (ATP), % of control: 67.2
Adam7 (a disintegrin and metallopeptidase domain 7) #2 — GFP, % of control: 55.5; viability (ATP), % of control: 46.6
Adam7 (a disintegrin and metallopeptidase domain 7) #3 — GFP, % of control: 84.2; viability (ATP), % of control: 83.2
Cbr2 (carbonyl reductase 2) #1 — GFP, % of control: 54.9; viability (ATP), % of control: 83.7
Cbr2 (carbonyl reductase 2) #2 — GFP, % of control: 61.8; viability (ATP), % of control: 67.8
Cbr2 (carbonyl reductase 2) #3 — GFP, % of control: 43.5; viability (ATP), % of control: 33.7
Dnah1 (dynein, axonemal, heavy chain 1) #1 — GFP, % of control: 80.8; viability (ATP), % of control: 96.3
Dnah1 (dynein, axonemal, heavy chain 1) #2 — GFP, % of control: 69; viability (ATP), % of control: 45.8
Dnah1 (dynein, axonemal, heavy chain 1) #3 — GFP, % of control: 67.8; viability (ATP), % of control: 88.3
Dnah1 (dynein, axonemal, heavy chain 1) #4 — GFP, % of control: 130 (active); viability (ATP), % of control: 83.9
Dnah1 (dynein, axonemal, heavy chain 1) #5 — GFP, % of control: 47.7; viability (ATP), % of control: 54.8
Dnah1 (dynein, axonemal, heavy chain 1) #6 — GFP, % of control: 68.1; viability (ATP), % of control: 71.4

Active calls (from the list above):
Tsbp1 (testis expressed basic protein 1) #2 — GFP, % of control: 150 (active); viability (ATP), % of control: 144
Sv2b (synaptic vesicle glycoprotein 2b) #1 — GFP, % of control: 129 (active); viability (ATP), % of control: 111
Sv2b (synaptic vesicle glycoprotein 2b) #2 — GFP, % of control: 146 (active); viability (ATP), % of control: 95.5
Dnah1 (dynein, axonemal, heavy chain 1) #4 — GFP, % of control: 130 (active); viability (ATP), % of control: 83.9
